Assay results taken from patent publication US8383139B2 (Bayer CropScience AG, priority 2008, dated 2013).
Some results were stated once for a whole list of compounds, not compound by compound.

Legend:
Assay type in all cases: in vivo
Septoria tritici = Septoria tritici test (wheat)/protective; details: 500 ppm active substance, protective, evaluation 21 days after inoculation
Protocol: • Solvent: 50 parts by weight of N,N-dimethylacetamide • Emulsifier: 1 part by weight of alkylaryl polyglycol ether (polyoxyethylene (16) tristearylphenyl ether) To prepare a suitable active substance composition, 1 part by weight of active substance is mixed with the given amounts of solvent and emulsifier and the concentrate is diluted to the desired concentration using water. For the testing of protective effectiveness, young plants are sprayed with the active substance composition at the application rate given. After the spray coating has dried on, the plants are sprayed with a suspension of spores of Septoria tritici. The plants remain in an incubation chamber at 20° C. and 100% relative humidity for 48 hours. The plants are afterwards placed under a transparent hood at 15° C. and 100% relative humidity for a further 60 hours. The plants are placed in a greenhouse at a temperature of approximately 15° C. and a relative humidity of 80%. Evaluation is carried out 21 days after the inoculation. In this connection, 0% means a degree of effectiveness corresponding to that of the control, while a degree of effectiveness of 100% means that no infestation is observed.

Uromyces appendiculatus = assay: Uromyces test (beans)/protective; details: 100 ppm active substance, protective, evaluation 10 days after inoculation
Protocol: (§1) • Solvents: 24.5 parts by weight of acetone • 24.5 parts by weight of dimethylacetamide • Emulsifier: 1 part by weight of alkylaryl polyglycol ether (polyoxyethylene (16) tristearylphenyl ether)
(§2) To prepare a suitable active substance composition, 1 part by weight of active substance is mixed with the given amounts of solvents and emulsifier and the concentrate is diluted to the desired concentration using water.
For the testing of protective effectiveness, young plants are sprayed with the active substance composition in the application rate given. After the spray coating has been dried on, the plants are inoculated with an aqueous suspension of the spores of the bean rust pathogen Uromyces appendiculatus and then remain in an incubation chamber at approximately 20° C. and 100% relative humidity for 1 day.
The plants are then placed in a greenhouse at approximately 21° C. and a relative humidity of approximately 90%.
Evaluation is carried out 10 days after the inoculation. In this connection, 0% means a degree of effectiveness corresponding to that of the control, while a degree of effectiveness of 100% means that no infestation is observed.

Phakopsora pachyrhizi = assay: Phakopsora test (soybean)/protective; details: 500 ppm active substance, protective, evaluation 11 days after inoculation
Protocol: • Solvent: 28.5 parts by weight of acetone • Emulsifier: 1.5 parts by weight of polyoxyethylene alkylphenyl ether (polyoxy-ethylene (16) tristearylphenyl ether)
To prepare a suitable active substance composition, 1 part by weight of active substance is mixed with the given amounts of solvent and emulsifier and the concentrate is diluted to the desired concentration using water.
For the testing of protective effectiveness, young plants are sprayed with the active substance composition at the application rate given. One day after the spraying, the plants are sprayed with an aqueous suspension of spores of Phakopsora pachyrhizi. The plants remain in a greenhouse at 20° C. and 80% relative humidity.
Evaluation is carried out 11 days after the inoculation. In this connection, 0% means a degree of effectiveness corresponding to that of the control, while a degree of effectiveness of 100% means that no infestation is observed.

Sphaerotheca fuliginea = assay: Sphaerotheca test (cucumber)/protective; details: 500 ppm active substance, protective, evaluation 7 days after inoculation
Protocol: • Solvents: 49 parts by weight of N,N-dimethylformamide • Emulsifier: 1 part by weight of alkylaryl polyglycol ether (polyoxyethylene (16) tristearylphenyl ether) To prepare a suitable active substance composition, 1 part by weight of active substance is mixed with the given amounts of solvents and emulsifier and the concentrate is diluted to the desired concentration using water. For the testing of protective effectiveness, young cucumber plants are sprayed with the active substance composition in the application rate given. One day after the treatment, the plants are inoculated with a suspension of spores of Sphaerotheca fuliginea. Subsequently, the plants are placed in a greenhouse at 70% relative humidity and at a temperature of 23° C. Evaluation is carried out 7 days after the inoculation. In this connection, 0% means a degree of effectiveness corresponding to that of the control, while a degree of effectiveness of 100% means that no infestation is observed.

Puccinia triticina = Puccinia triticina test (wheat)/protective; details: 500 ppm active substance, protective, evaluation 8 days after inoculation
Protocol: • Solvent: 50 parts by weight of N,N-dimethylacetamide • Emulsifier: 1 part by weight of alkylaryl polyglycol ether (polyoxyethylene (16) tristearylphenyl ether) To prepare a suitable active substance composition, 1 part by weight of active substance is mixed with the given amounts of solvent and emulsifier and the concentrate is diluted to the desired concentration using water. For the testing of protective effectiveness, young plants are sprayed with the active substance composition in the application rate given. After the spray coating has been dried on, the plants are sprayed with spores with a suspension of spores of Puccinia triticina. The plants remain in an incubation chamber at 20° C. and 100% relative humidity for 48 hours. The plants are placed in a greenhouse at a temperature of approximately 20° C. and a relative humidity of approximately 80%. Evaluation is carried out 8 days after the inoculation. In this connection, 0% means a degree of effectiveness corresponding to that of the control, while a degree of effectiveness of 100% means that no infestation is observed.

Alternaria solani = assay: Alternaria test (tomato)/protective; details: 100 ppm active substance, protective, evaluation 3 days after inoculation
Protocol: as §1, §2
For the testing of protective effectiveness, young plants are sprayed with the active substance composition in the application rate given. After the spray coating has been dried on, the plants are inoculated with an aqueous suspension of spores of Alternaria solani. The plants are then placed in an incubation chamber at approximately 20° C. and 100% relative humidity.
Evaluation is carried out 3 days after the inoculation. In this connection, 0% means a degree of effectiveness corresponding to that of the control, while a degree of effectiveness of 100% means that no infestation is observed.

Compound | degree of effectiveness (Septoria tritici) [%] | degree of effectiveness (Uromyces appendiculatus) [%] | degree of effectiveness (Phakopsora pachyrhizi) [%] | degree of effectiveness (Sphaerotheca fuliginea) [%] | degree of effectiveness (Puccinia triticina) [%] | degree of effectiveness (Alternaria solani) [%]
CCOc1ccc(Cc2nsc(Oc3cc(C)c(N=CN(C)CC)cc3C)n2)cc1 [Example 89] | ≥ 70 | ≥ 70 | ≥ 80 | ≥ 70 | ≥ 70 | ≥ 70
Cc1ccccc1Cc1nsc(Oc2cc(C)c(N=CN3CCCCC3)cc2C)n1 [Example 68] | ≥ 70 | ≥ 70 | ≥ 80 | ≥ 70 | ≥ 70 | ≥ 70
CCN(C)C=Nc1cc(C)c(Oc2nc(Cc3c(F)cccc3Cl)ns2)cc1C [Example 74] | ≥ 70 | ≥ 70 | ≥ 80 | ≥ 70 | ≥ 70 | ≥ 70
CCOc1ccc(Cc2nsc(Oc3cc(C)c(N=CN4CCCCC4)cc3C)n2)cc1 [Example 90] | ≥ 70 | ≥ 70 | ≥ 80 | ≥ 70 | ≥ 70 | ≥ 70
CCN(C)C=Nc1cc(C)c(Oc2nc(Cc3ccc4ccccc4c3)ns2)cc1C [Example 97] | ≥ 70 | ≥ 70 | ≥ 80 | ≥ 70 | ≥ 70 | ≥ 70
CCN(C)C=Nc1cc(C)c(Oc2nc(Cc3cccc(F)c3)ns2)cc1C [Example 78] | ≥ 70 | ≥ 70 | ≥ 80 | ≥ 70 | ≥ 70 | ≥ 70
CCN(C)C=Nc1cc(C)c(Oc2nc(Cc3ccc(F)c(C(F)(F)F)c3)ns2)cc1C [Example 94] | ≥ 70 | ≥ 70 | ≥ 80 | ≥ 70 | ≥ 70 | ≥ 70
CCN(C)C=Nc1cc(C)c(Oc2nc(Cc3ccc(Oc4ccccc4)cc3)ns2)cc1C [Example 80] | ≥ 70 | ≥ 70 | ≥ 80 | ≥ 70 | ≥ 70 | ≥ 70
CCN(C)C=Nc1cc(C)c(Oc2nc(Cc3ccc([N+](=O)[O-])cc3)ns2)cc1C [Example 64] | ≥ 70 | ≥ 70 | ≥ 80 | ≥ 70 | ≥ 70 | ≥ 70
CCN(C)C=Nc1cc(C)c(Oc2nc(Cc3ccc(-c4ccccc4)cc3)ns2)cc1C [Example 73] | ≥ 70 | ≥ 70 | ≥ 80 | ≥ 70 | ≥ 70 | ≥ 70
Cc1cc(Oc2nc(Cc3ccc(C(F)(F)F)cc3)ns2)c(C)cc1N=CN1CCCCC1 [Example 79] | ≥ 70 | ≥ 70 | ≥ 80 | ≥ 70 | ≥ 70 | ≥ 70
CCN(C)C=Nc1cc(C)c(Oc2nc(Cc3ccccc3F)ns2)cc1C [Example 99] | ≥ 70 | ≥ 70 | ≥ 80 | ≥ 70 | ≥ 70 | ≥ 70
CCN(C)C=Nc1cc(C)c(Oc2nc(Cc3ccccc3Br)ns2)cc1C [Example 100] | ≥ 70 | ≥ 70 | ≥ 80 | ≥ 70 | ≥ 70 | ≥ 70
